Consider 1 sequence from article PMC5386588.

By UniProt entry, the sequences of proteins in these tests, tags left out.
UniProt Q9Y5X4, whole entry R309G: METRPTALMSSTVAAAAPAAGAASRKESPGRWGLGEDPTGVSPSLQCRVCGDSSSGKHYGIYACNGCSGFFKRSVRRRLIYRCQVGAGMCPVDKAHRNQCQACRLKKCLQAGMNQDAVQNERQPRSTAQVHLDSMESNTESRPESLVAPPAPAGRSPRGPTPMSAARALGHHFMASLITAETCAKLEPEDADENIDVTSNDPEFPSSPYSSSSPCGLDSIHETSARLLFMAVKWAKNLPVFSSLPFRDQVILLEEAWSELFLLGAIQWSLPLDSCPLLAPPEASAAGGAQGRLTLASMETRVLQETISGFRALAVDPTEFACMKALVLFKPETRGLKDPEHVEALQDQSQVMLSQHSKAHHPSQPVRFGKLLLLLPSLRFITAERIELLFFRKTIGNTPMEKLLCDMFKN

What all share (test): EMSA
The target of one series is PNR R309G (human) (UniProt Q9Y5X4). The conditions noted are these: R309G alone, with or without anti-PNR; EMSA: HEK293 nuclear extract with 1 µl 32P-labelled probe (100,000 cpm/µl); protein in a lysate after overexpression; residues 1-410; protein details: N-terminal His6; label: 5'-32P.
Another series has as its system PNR R309G + PPARγ. The conditions noted are these: co-expression, supershifted by anti-PNR or anti-PPARγ/FLAG; EMSA: HEK293 nuclear extract with 1 µl 32P-labelled probe (100,000 cpm/µl); protein in a lysate after overexpression; protein details: N-terminal His6,FLAG; label: 5'-32P.
A further series deals with PNR wild type (human) (UniProt Q9Y5X4). The settings on record: supershifted by anti-PNR; EMSA: HEK293 nuclear extract with 1 µl 32P-labelled probe (100,000 cpm/µl); protein in a lysate after overexpression; residues 1-410; protein details: N-terminal His6; label: 5'-32P.
The next series relates to PPARγ + RXRα. The conditions noted are these: co-expression, supershifted by anti-FLAG; EMSA: HEK293 nuclear extract with 1 µl 32P-labelled probe (100,000 cpm/µl); protein in a lysate after overexpression; protein details: FLAG; label: 5'-32P.

The exact form of at least one protein or probe is not confirmed. Where cells or extracts were used, other partners may take part. For some of these results: Negatives hold for the conditions tested.

For the sequence “GGTAAAGGTCAAAGGTCAAT (double strand) [DR1 (PPRE) probe]”, the binding result was “no binding” with PNR R309G (human), “binds” in the series with PNR R309G + PPARγ, “binds” in the series with PNR wild type (human) and “binds” with PPARγ + RXRα.
